Residue numbers refer to the chain shown, from its start. The list shows a part of the results. For part of these data: At the low end of the ranking the order means little. For part of these data: The source does not settle which construct or isoform was used. Bounds are passed on as bounds.

The record followed here is paper PMC8384837.

What all share (conditions): yeast three-hybrid, YBZ-1, SC-Leu-His + 0.5 mM 3-AT, 4 days
The target of assay [1] is T1, PUM1 PUF domain R2-VFQ R3-THE R4-TFR N899V + Y900F + C935T + R936H + Q939E + N971T + H972F + Q975R (UniProt Q14671).
T1 sequence: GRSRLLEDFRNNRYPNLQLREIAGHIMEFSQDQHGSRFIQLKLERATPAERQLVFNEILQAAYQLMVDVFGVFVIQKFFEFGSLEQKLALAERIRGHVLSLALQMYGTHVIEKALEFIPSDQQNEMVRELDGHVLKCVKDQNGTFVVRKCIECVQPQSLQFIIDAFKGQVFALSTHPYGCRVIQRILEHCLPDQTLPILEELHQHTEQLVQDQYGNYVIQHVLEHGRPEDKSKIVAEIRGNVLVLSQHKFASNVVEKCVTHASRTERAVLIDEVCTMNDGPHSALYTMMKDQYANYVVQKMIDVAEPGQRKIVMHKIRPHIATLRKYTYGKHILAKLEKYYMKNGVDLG

The target in assay [2] is T2, PUM1 PUF domain R5-PHQ R6-SWD C1007P + R1008H + N1043S + Y1044W + Q1047D (UniProt Q14671).
T2 sequence: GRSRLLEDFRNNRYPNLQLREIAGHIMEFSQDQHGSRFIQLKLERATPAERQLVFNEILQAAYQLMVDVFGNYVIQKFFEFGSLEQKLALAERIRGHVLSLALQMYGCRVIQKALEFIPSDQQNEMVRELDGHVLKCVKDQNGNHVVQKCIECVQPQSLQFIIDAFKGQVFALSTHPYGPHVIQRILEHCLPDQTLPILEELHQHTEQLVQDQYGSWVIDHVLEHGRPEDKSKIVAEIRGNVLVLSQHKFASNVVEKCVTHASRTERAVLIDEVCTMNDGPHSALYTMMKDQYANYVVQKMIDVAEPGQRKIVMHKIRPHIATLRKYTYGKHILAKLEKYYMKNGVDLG

Assay [3] addresses T3, PUM1 PUF domain R6-SWD R7-NPG N1043S + Y1044W + Q1047D + S1079N + N1080P + E1083G (Homo sapiens) (UniProt Q14671).
T3 sequence: T2 sequence with P180C, H181R, S252N, N253P, E256G

Assay [4] has as its target T4, PUM1 PUF domain R3-THE R4-TFR C935T + R936H + Q939E + N971T + H972F + Q975R (UniProt Q14671).
T4 sequence: T1 sequence with V72N, F73Y

In assay [5] the target is T5, PUM1 PUF domain R3-THE R4-TFR R7-NPG C935T + R936H + Q939E + N971T + H972F + Q975R + S1079N + N1080P + E1083G (Homo sapiens) (UniProt Q14671).
T5 sequence: T1 sequence with V72N, F73Y, S252N, N253P, E256G

Assay [6] has as its target T6, PUM1 PUF domain R3-THE R4-TFR R7-NPG C935T + R936H + Q939E + N971T + H972F + Q975R + S1079N + N1080P + E1083G (UniProt Q14671).
T6 sequence: T1 sequence with V72N, F73Y, S252N, N253P, E256G

In the case of “GGCUAGAACUAGUGGAUCCCCCGGCGCCCGGCGGCUCGAGCCCGGGUAAGUUGAUAAAGUCUGCAUGCCGCCGGGCGCCAUGCCUGCAGGUCGACUCUAGAAAACAUG”, the binding signal (log2 enrichment (interaction score)) in assay [1] is -4.91; in assay [2] it was -7.69; in assay [3] it was -0.93.
Consider “GGCUAGAACUAGUGGAUCCCCCGGCGCCCGGCGGCUCGAGCCCGGGUAAGUUGUAGGAGUCUGCAUGCCGCCGGGCGCCAUGCCUGCAGGUCGACUCUAGAAAACAUG”, for which the binding signal (log2 enrichment (interaction score)) is -5.29 in assay [1] and -6.94 in assay [2].
Consider “GGCUAGAACUAGUGGAUCCCCCGGCGCCCGGCGGCUCGAGCCCGGGUAAGAUCACACUGUCUGCAUGCCGCCGGGCGCCAUGCCUGCAGGUCGACUCUAGAAAACAUG”, for which the results for the binding signal (log2 enrichment (interaction score)) in assay [1] and in assay [3] were -5.56 and -0.49, respectively.
As to “GGCUAGAACUAGUGGAUCCCCCGGCGCCCGGCGGCUCGAGCCCGGGUAAGUGGCAUACGUCUGCAUGCCGCCGGGCGCCAUGCCUGCAGGUCGACUCUAGAAAACAUG”, the binding signal (log2 enrichment (interaction score)) in assay [1] is -5.44; in assay [2], less than -7.8.
Take “GGCUAGAACUAGUGGAUCCCCCGGCGCCCGGCGGCUCGAGCCCGGGUAAGCGGAUUUAGUCUGCAUGCCGCCGGGCGCCAUGCCUGCAGGUCGACUCUAGAAAACAUG”: the binding signal (log2 enrichment (interaction score)) in assay [1] is -4.95; in assay [2], -7.58.
For “GGCUAGAACUAGUGGAUCCCCCGGCGCCCGGCGGCUCGAGCCCGGGUAAGAUGACACCGUCUGCAUGCCGCCGGGCGCCAUGCCUGCAGGUCGACUCUAGAAAACAUG”, the binding signal (log2 enrichment (interaction score)) in assay [1] was -4.69; in assay [2], -8.52.
Consider “GGCUAGAACUAGUGGAUCCCCCGGCGCCCGGCGGCUCGAGCCCGGGUAAGUAGAGAUUGUCUGCAUGCCGCCGGGCGCCAUGCCUGCAGGUCGACUCUAGAAAACAUG”, for which the binding signal (log2 enrichment (interaction score)) was -5.62 in assay [1], -7.82 in assay [2] and -0.32 in assay [3].
Regarding “GGCUAGAACUAGUGGAUCCCCCGGCGCCCGGCGGCUCGAGCCCGGGUAAGUGCAAGACGUCUGCAUGCCGCCGGGCGCCAUGCCUGCAGGUCGACUCUAGAAAACAUG”, the binding signal (log2 enrichment (interaction score)) in assay [1] is -5.78; in assay [2] it was less than -7.91.
Regarding “GGCUAGAACUAGUGGAUCCCCCGGCGCCCGGCGGCUCGAGCCCGGGUAAGAUGAAGUUGUCUGCAUGCCGCCGGGCGCCAUGCCUGCAGGUCGACUCUAGAAAACAUG”, the binding signal (log2 enrichment (interaction score)) is -5.58 in assay [1], -7.54 in assay [2] and -1.53 in assay [3].
On to “GGCUAGAACUAGUGGAUCCCCCGGCGCCCGGCGGCUCGAGCCCGGGUAAGCUCGGGUAGUCUGCAUGCCGCCGGGCGCCAUGCCUGCAGGUCGACUCUAGAAAACAUG”, for which the binding signal (log2 enrichment (interaction score)) in assay [4] is -6.13.
Regarding “GGCUAGAACUAGUGGAUCCCCCGGCGCCCGGCGGCUCGAGCCCGGGUAAGUUUACAAAGUCUGCAUGCCGCCGGGCGCCAUGCCUGCAGGUCGACUCUAGAAAACAUG”, the binding signal (log2 enrichment (interaction score)) in assay [1] is less than -5.76; in assay [3], -0.65.
“GGCUAGAACUAGUGGAUCCCCCGGCGCCCGGCGGCUCGAGCCCGGGUAAGUUGAUCAUGUCUGCAUGCCGCCGGGCGCCAUGCCUGCAGGUCGACUCUAGAAAACAUG”: the binding signal (log2 enrichment (interaction score)) in assay [1] is -5.2; in assay [3], -0.91.
In the case of “GGCUAGAACUAGUGGAUCCCCCGGCGCCCGGCGGCUCGAGCCCGGGUAAGCCAAACUAGUCUGCAUGCCGCCGGGCGCCAUGCCUGCAGGUCGACUCUAGAAAACAUG”, the binding signal (log2 enrichment (interaction score)) in assay [4] is -7.34; in assay [5], -1.69; in assay [2], less than -7.96.
Regarding “GGCUAGAACUAGUGGAUCCCCCGGCGCCCGGCGGCUCGAGCCCGGGUAAGUUGUCUUAGUCUGCAUGCCGCCGGGCGCCAUGCCUGCAGGUCGACUCUAGAAAACAUG”, the binding signal (log2 enrichment (interaction score)) in assay [4] is -7.03; in assay [5] it was -1.13; in assay [3] it was -0.85.
With “GGCUAGAACUAGUGGAUCCCCCGGCGCCCGGCGGCUCGAGCCCGGGUAAGUACACGUCGUCUGCAUGCCGCCGGGCGCCAUGCCUGCAGGUCGACUCUAGAAAACAUG”, the binding signal (log2 enrichment (interaction score)) was -8.24 in assay [4] and -1.62 in assay [5].
Take “GGCUAGAACUAGUGGAUCCCCCGGCGCCCGGCGGCUCGAGCCCGGGUAAGUCUAAGUAGUCUGCAUGCCGCCGGGCGCCAUGCCUGCAGGUCGACUCUAGAAAACAUG”: the figures for the binding signal (log2 enrichment (interaction score)) in assay [4], in assay [5] and in assay [2] were -7.77, -1.86 and -9.25, respectively.
“GGCUAGAACUAGUGGAUCCCCCGGCGCCCGGCGGCUCGAGCCCGGGUAAGCGUGGAUUGUCUGCAUGCCGCCGGGCGCCAUGCCUGCAGGUCGACUCUAGAAAACAUG”: the binding signal (log2 enrichment (interaction score)) in assay [4] was less than -7.96; in assay [6] it was less than -2.07.
For “GGCUAGAACUAGUGGAUCCCCCGGCGCCCGGCGGCUCGAGCCCGGGUAAGUAUGCGACGUCUGCAUGCCGCCGGGCGCCAUGCCUGCAGGUCGACUCUAGAAAACAUG” the same measures were -7.92 and -2.07.
In the case of “GGCUAGAACUAGUGGAUCCCCCGGCGCCCGGCGGCUCGAGCCCGGGUAAGUUUACAAGGUCUGCAUGCCGCCGGGCGCCAUGCCUGCAGGUCGACUCUAGAAAACAUG”, the binding signal (log2 enrichment (interaction score)) is less than -7.33 in assay [4] and less than -1.63 in assay [5].
Take “GGCUAGAACUAGUGGAUCCCCCGGCGCCCGGCGGCUCGAGCCCGGGUAAGAUCCAGUAGUCUGCAUGCCGCCGGGCGCCAUGCCUGCAGGUCGACUCUAGAAAACAUG”: the binding signal (log2 enrichment (interaction score)) in assay [4] was -6.61.
For “GGCUAGAACUAGUGGAUCCCCCGGCGCCCGGCGGCUCGAGCCCGGGUAAGUAGACGUAGUCUGCAUGCCGCCGGGCGCCAUGCCUGCAGGUCGACUCUAGAAAACAUG”, the binding signal (log2 enrichment (interaction score)) in assay [4] is -7.04; in assay [5] it was -0.65.
As for “GGCUAGAACUAGUGGAUCCCCCGGCGCCCGGCGGCUCGAGCCCGGGUAAGGGUGCGUAGUCUGCAUGCCGCCGGGCGCCAUGCCUGCAGGUCGACUCUAGAAAACAUG”, the binding signal (log2 enrichment (interaction score)) was less than -7.03 in assay [4] and -2.2 in assay [6].
